Test results from US9242883B2, “Pre-treatment of sludge” (THE UNIVERSITY OF QUEENSLAND, priority 2011, dated 2016).

Procedure: In this experiment, a lab-scale sequencing batch reactor (SBR) with a working volume of 8 L was used in this study. The SBR was operated with a cycle time of 6-h, consisting of 10 min anoxic feed, 70 min anoxic reaction, 225 min aerobic reaction, 5 min sludge wasting, 45 min settling and 5 min decanting periods. In each cycle, 2 L of synthetic wastewater containing 400 mg COD and 50 mgN/L TKN including 40 mgNH4+-N/L, made from milk powder and ammonium chloride, along with other trace elements, was pumped into the SBR in the 10 min feed period, resulting in a hydraulic retention time (HRT) of 24 h. Before settling, around 133 ml of mixed liquor was wasted, giving rise to a sludge retention time of 15 days. The SBR was operated at a temperature of 18±2° C., with DO being controlled between 1.5-2.0 mg/L by a programmable logic controller (PLC) in the aerobic period.
50% of the wasted mixed liquor was treated by 2.0 mg HNO2-N/L for approximately 24 h, 30 h, 36 h and 42 h, respectively.
The sludge wasted from the SBR was allowed to settle. […] The other 50% of the sludge was sent to disposal.
A control SBR operating under identical conditions was also fed with the same wastewater, but there was no recycle of any sludge to this reactor.

[1] = with FNA treatment, steady state

For `O=NO` [FNA, free nitrous acid], the “MLVSS Measured” value (FNA reactor, steady state) was 1686 ± 8 mg/L, the “MLSS Measured” value (FNA reactor, steady state, 50% of wasted sludge treated with approx. 2 ppm FNA, pH 6.0, approx. 24 h and recycled) was 1762 ± 9 mg/L and the “overall sludge production relative to control SBR” value (experimental SBR system) was 60%. For the same compound, the sludge production reduction (experimental SBR vs control SBR) was 40%, the “effluent NH4—N” value [1] was 0.1 ± 0.01 mg/L and the “effluent NO2—N” value [1] was 0.01 ± 0 mg/L. The “effluent NO3—N” value [1] was 11.8 ± 0.4 mg/L.
